The target of this data set is T1, MrpR G136E (Bacillus subtilis prophage SPβ c2) (UniProt O34558).
T1 sequence (looked up, limits assumed): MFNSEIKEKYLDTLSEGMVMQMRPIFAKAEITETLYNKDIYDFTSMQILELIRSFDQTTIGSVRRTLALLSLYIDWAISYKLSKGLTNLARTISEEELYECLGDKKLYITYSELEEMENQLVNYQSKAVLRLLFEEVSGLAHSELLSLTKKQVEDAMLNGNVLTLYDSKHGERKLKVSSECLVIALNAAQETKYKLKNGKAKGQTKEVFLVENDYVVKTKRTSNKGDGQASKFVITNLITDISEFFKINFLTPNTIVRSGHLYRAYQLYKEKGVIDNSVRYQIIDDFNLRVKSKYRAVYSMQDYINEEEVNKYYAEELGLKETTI
In words: EMSA. To be noted: herring sperm DNA, EMSA: same buffer plus 50 ug/ml herring sperm DNA, RT 15 min, recombinant protein, probe letters rebuilt from the primers and the genome. In general terms: In EMSA bound probe runs differently from free probe, usually more slowly.

The exact form of at least one protein or probe is not confirmed. Weaker means in comparison with the reference protein, sequence or condition of that experiment. Tags and fusion partners may be left off the protein sequences shown.

For “CAGCATACTCCAATGCACTTCTTGCTGCCTTTGTCTTAACATCTAGGTTTAAACAGTAATCTTTCATTAATTCATATTCACGGTCTGGATACTGACTCTTAACAATGTTGACTATTGAAGAAAATTCATTAAATGTTTTCCCATCATGGTTTAAGAAGTCATAAAGAGGATTGGGGTTTTTAAGGCCAGCTACTGTTGCCCATTTATTCATTAAAGAGTTGTCATTTTCCAAGTCTTTCTTCATAGCTATCCTTATTAACTCCATTATTTCCCCTCATTTCTTTTTGTTGTCTTTATTGGTTAACTTAATAATACTATAGATCACATTACGAGTCAATTATTTTATACATATTTTTTGTATTTGTAATCTCTTTAAAATTCCAATTTTAACTAGACACAATGAGGACTAAACCTCATTGTGTTCTTCTAAAGCAAAAGGTCCTACTTAAGGCTATAATACACCTCTTCCGCAATATCCTTTGCAAACCTAGCGAAAATTTCTCTATCAAAACTTCTTAAGCATTTAGCTAAGGACAGGATATTCTGCACATGGTCAAGTGTATTAGTCAAATCTAATGCCGTTACCAAAGAAAGCAACATGTCTTTGTAGTTCATATCTCCGGC (double strand) [PaimR EMSA fragment with SPBRE]”, the binding result (comparable shift needs approx. 10- to 20-fold excess over 50 nM DNA, 6% native PAGE 0.5x TBE, protein details: C-terminal His6, label: Dyomics 781 at 5' end of reverse primer) was “binds more weakly”.

Turning to “CTTTTGTAATAGCAGCCGATTGTAATGTCAATGTAGCTGCATCGTCTATTGACATGAAAAATCTGGTCATGTTTTTGTCTGTGATGGTCAGAGGTTCACCCTCCATCATCTGTTCAAATAATATGGGGATGACCGAACCTCTGGAACCGAGAACATTTCCAAAGCGGACCGAACAAAACAAGGTTCCTTTGTTTTGGACGTGGCGGTTTGCTTGATGAAACAGCTTTTCAGATAACAGCTTGGTGGCACCCATTGTGTTCACAGGAGATACAGCTTTATCTGTTTTTTAAGATACTTACTACTTTTCTTAGTGGAAACTATTAGTGGCTGTGAGGTCAAAAATGAAATTAAACCTTAGGATAGGGGTTATTTCAAATTGAGCTGGTATAGGCCCTTTTCTTTTTTGTGTCATGTTAACAATAACATCTTTTAAGACCATCCTTAATAGCTCGTTCTTTTTCTCTGAGCTTGATTCAATGTGATACTGGTCAATTATTTTATTTATGTTGTTTCTCACTGTATTACTGTCTATTTCTGATTGTGTATCTTGTAATCCATTGAGCTCATTCTTTGCATTCTGGAGCTCTTTAAATTCTTCATCTAATGCAGC (double strand) [attR EMSA fragment (no SPBRE)]”, the binding result (shift only at DNA:protein 1:100 (50 nM DNA), 6% native PAGE 0.5x …, protein details: C-terminal His6, label: Cy3 at 5' end of forward primer) is recorded as “binds more weakly”.

These data come from PMC10516654, “Structural and functional characterization of MrpR, the master repressor of the Bacillus subtilis prophage SPβ”.
